Assay results: doi:10.1101/2022.12.08.519265
Results are given in words; binding and its absence hold for the method and conditions named. Binding seen in cells or lysates may run through a third protein. Some entries that bind do so weakly or less than the wild type.

By UniProt entry, the sequences of proteins in these tests, tags left out.
UniProt Q9Y572: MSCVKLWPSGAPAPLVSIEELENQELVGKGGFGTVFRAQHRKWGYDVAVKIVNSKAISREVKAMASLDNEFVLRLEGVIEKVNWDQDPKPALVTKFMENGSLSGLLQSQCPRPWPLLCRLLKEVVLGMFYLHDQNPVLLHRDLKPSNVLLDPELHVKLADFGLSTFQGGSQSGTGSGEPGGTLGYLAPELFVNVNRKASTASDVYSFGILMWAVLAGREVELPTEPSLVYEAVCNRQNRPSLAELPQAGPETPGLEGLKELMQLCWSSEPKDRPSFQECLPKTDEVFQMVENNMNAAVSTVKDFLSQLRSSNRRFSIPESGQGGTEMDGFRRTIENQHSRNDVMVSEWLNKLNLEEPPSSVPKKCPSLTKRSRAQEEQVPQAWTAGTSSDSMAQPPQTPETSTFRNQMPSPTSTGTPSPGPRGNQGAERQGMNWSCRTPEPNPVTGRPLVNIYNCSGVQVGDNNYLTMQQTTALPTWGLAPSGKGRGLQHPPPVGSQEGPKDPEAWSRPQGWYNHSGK
UniProt Q13546: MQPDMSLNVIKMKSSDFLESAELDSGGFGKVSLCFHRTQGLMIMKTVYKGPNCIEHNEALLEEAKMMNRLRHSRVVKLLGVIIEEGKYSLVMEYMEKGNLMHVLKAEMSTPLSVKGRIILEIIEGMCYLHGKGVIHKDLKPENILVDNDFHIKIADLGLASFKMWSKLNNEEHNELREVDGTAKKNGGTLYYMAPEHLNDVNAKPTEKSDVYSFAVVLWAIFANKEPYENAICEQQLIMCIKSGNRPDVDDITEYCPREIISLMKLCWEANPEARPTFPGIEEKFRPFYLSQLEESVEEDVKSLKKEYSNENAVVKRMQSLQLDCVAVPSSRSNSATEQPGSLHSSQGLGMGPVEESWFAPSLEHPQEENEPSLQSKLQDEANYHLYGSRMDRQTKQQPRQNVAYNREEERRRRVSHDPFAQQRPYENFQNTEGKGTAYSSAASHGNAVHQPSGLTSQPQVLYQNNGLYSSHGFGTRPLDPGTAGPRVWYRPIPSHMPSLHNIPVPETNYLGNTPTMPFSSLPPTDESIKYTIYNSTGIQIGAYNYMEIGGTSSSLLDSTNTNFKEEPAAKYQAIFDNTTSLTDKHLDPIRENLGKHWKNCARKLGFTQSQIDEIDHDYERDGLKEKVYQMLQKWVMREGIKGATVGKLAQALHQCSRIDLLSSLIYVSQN

Molecular target: Strep-tagged RIPK3 wild-type (WT) (UniProt Q9Y572)
Test: co-IP

With “phosphorylated RIPK1 S166 (from UniProt Q13546 1-671)” the binding was “binds”.
